Measured values from the supplement of paper PMC8326762, “A Small Molecule Inhibitor of Pex3–Pex19 Interaction Disrupts Glycosome Biogenesis and Causes Lethality in Trypanosoma brucei” (Frontiers in Cell and Developmental Biology, 2021).
Structures can show the parent of a compound that is named as a salt. The list shows a part of the results. The data scatter; read single values as rough.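 Optical density at 600 nm measured yeast growth. Because the two-hybrid strains grew without histidine, growth required Pex3–Pex19 binding. Trypanosome selectivity meant a compound inhibited the trypanosome-pair strain's growth by more than 65% but the human-pair strain's by less than 65%.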

tested on: Saccharomyces cerevisiae HF7c pdr5Δ; test: general growth inhibition of yeast HF7c pdr5Δ in -Leu -Trp medium, relative to DMSO; higher = stronger general growth inhibition; conditions: 100 µM; 24 h

Compound | general growth inhibition [%]
CC(=O)OC(C)C[N+](C)(C)C (stereo not drawn) [Acetyl-beta-methylcholine chloride] | 53.9
CCn1nc(C(=O)O)c(=O)c2cc3c(cc21)OCO3 [Cinoxacin] | 60.1
CN1CCC[C@@H]1Cc1c[nH]c2ccc(CCS(=O)(=O)c3ccccc3)cc12 [Eletriptan hydrobromide] | 5.84
COc1ccc2c(c1)CC[C@@H]1[C@@H]2CC[C@]2(C)[C@@H](NCCCCCCN3C(=O)CCC3=O)CC[C@@H]12 | 18.1
CO[C@@]1(NC(=O)CSCC#N)C(=O)N2C(C(=O)O)=C(CSc3nnnn3C)CS[C@@H]21 [Cefmetazole sodium] | 44.3
CC(=O)N[C@@H](Cc1c[nH]c2ccccc12)C(=O)OCc1cc(C(F)(F)F)cc(C(F)(F)F)c1 | 48.1
NS(=O)(=O)c1ccc(-n2nc(C(F)(F)F)cc2-c2ccc(Cl)cc2)cc1 | 51.2
O=c1c(O)c(-c2cc(O)c(O)c(O)c2)oc2cc(O)cc(O)c12 [Myricetin] | 42.7
CN1[C@@H](CC(=O)c2ccccc2)CCC[C@H]1C[C@H](O)c1ccccc1 [alpha-Lobeline hydrochloride] | 49.5
OC(CCN1CCCCC1)(c1ccccc1)C1CC2C=CC1C2 (stereo not given) [Biperiden hydrochloride] | 25
C[C@]12CC[C@@H]3c4ccc(O)cc4CC[C@H]3[C@@H]1CC[C@@H]2O [beta-Estradiol] | 19.1
CC1=C(C(=O)O)N2C(=O)[C@@H](NC(=O)[C@H](N)c3ccccc3)[C@H]2SC1 [Cephalexin hydrate] | 33.2
CC(C)(C)[C@]1(O)CCN2C[C@H]3c4ccccc4CCc4cccc(c43)[C@@H]2C1 (racemic) [(±)-Butaclamol hydrochloride] | 44.7
O=c1c2ccccc2nc2n1CCc1c-2[nH]c2ccccc12 [Rutaecarpine] | 36.6
Fc1ccc([C@@H]2CCNC[C@H]2COc2ccc3c(c2)OCO3)cc1 [Paroxetine hydrochloride hemihydrate (MW = 374.83)] | 37.6
NCCSSCCN [Cystamine dihydrochloride] | 35
Nc1nc2ccc(Cl)cc2c2nc(-c3ccco3)nn12 | 22.3
N=C(N)N1CCc2ccccc2C1 [Debrisoquin sulfate] | 20.7

Compound | general growth inhibition [%]
CC(CCc1ccc(O)cc1)NCCc1ccc(O)c(O)c1 (stereo not given) [Dobutamine hydrochloride] | 34
O=c1n(CCCN2CCN(c3cccc(Cl)c3)CC2)nc2ccccn12 [Trazodone hydrochloride] | 26.2
O=C(O)/C=C/c1cnc[nH]1 [4-Imidazoleacrylic acid] | 57.7
COc1cccc2c1[C@@H]1CN(CCCCn3c(=O)[nH]c4c(sc5ncc(-c6ccccc6)nc54)c3=O)C[C@@H]1CO2 [Fiduxosin hydrochloride] | 84.4
COc1ccc(/C=C2\COc3ccc(C)cc3C2=O)cc1O | 32
CC(C)Cc1ccc(C(C)C(=O)O)cc1 (racemic) [(±)-Ibuprofen] | 65.9
C[N+](C)(C)CCOC(=O)CCC(=O)OCC[N+](C)(C)C [Succinylcholine chloride] | 53
Cc1ccc(Cl)c(Nc2ccccc2C(=O)O)c1Cl [Meclofenamic acid sodium] | 12.6
O=C(CCCN1CCC(O)(c2cccc(C(F)(F)F)c2)CC1)c1ccc(F)cc1 [Trifluperidol hydrochloride] | 44.3
Nc1ccn([C@@H]2O[C@H](CO)[C@@H](O)C2(F)F)c(=O)n1 [Gemcitabine hydrochloride] | 45
C[C@@H](c1ncncc1F)[C@](O)(Cn1cncn1)c1ccc(F)cc1F [Voriconazole] | 84.7
COc1cccc(OC)c1-c1cc(C(=O)NC2(C(=O)O)C3CC4CC(C3)CC2C4)nn1-c1ccc(C(=O)N(C)CCCN(C)C)cc1C(C)C (stereo not given) | 27.1
Oc1cc(O)cc(/C=C/c2ccc(O)c(O)c2)c1 [Piceatannol] | 58.8
CN1CCC[C@@H]1CCO[C@](C)(c1ccccc1)c1ccc(Cl)cc1 [Clemastine fumarate] | 37.9
CC(C)(C)NCC(O)c1cc(O)cc(O)c1 (stereo not given) [Terbutaline hemisulfate] | 45.4
Cn1ccc2cc3c(cc21)CCN3C(=O)Nc1cccnc1 | 29.7
COC(=O)[C@H]1[C@H]2C[C@@H]3c4[nH]c5cc(OC)ccc5c4CCN3C[C@H]2C[C@@H](OC(=O)c2cc(OC)c(OC)c(OC)c2)[C@@H]1OC [Reserpine] | 11.7

In the list so far, two have a tert-butyl group:
Compound | general growth inhibition [%]
CC(C)(C)[C@]1(O)CCN2C[C@H]3c4ccccc4CCc4cccc(c43)[C@@H]2C1 (racemic) [(±)-Butaclamol hydrochloride] | 44.7
CC(C)(C)NCC(O)c1cc(O)cc(O)c1 (stereo not given) [Terbutaline hemisulfate] | 45.4
